Experimental data: patent US20100159468A1
These are yes or no findings as the source states them, for the method shown. Binding seen in cells or lysates may run through a third protein. Some entries that bind do so weakly or less than the wild type. Tags and fused reporters may be left off the sequences shown.

Sequences of proteins named here, by UniProt entry; tags and fusion partners are left off. Residues count along the entry.
UniProt P84077, residues 2-181: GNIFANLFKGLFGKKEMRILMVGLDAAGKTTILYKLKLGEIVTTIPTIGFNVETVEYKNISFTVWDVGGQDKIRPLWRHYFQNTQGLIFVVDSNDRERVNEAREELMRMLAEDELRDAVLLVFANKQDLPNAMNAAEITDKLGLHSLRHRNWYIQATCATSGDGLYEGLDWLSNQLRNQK

Molecular target: Arf1-V5 (human) (UniProt P84077)
Experiment: GST pulldown of Arf1-GTP from Vero cell lysates on glutathione agarose, anti-V5 Western blot

binding: binds
B1: recombinant GGA3-GST protein (VHS and GAT domains from human GGA3 in pGEX-6p1) (protein, UniProt Q9NZ52 1-316, looked up, not shown: a dimerising Fc or GST)
chain: MAEAEGESLESWLNKATNPSNRQEDWEYIIGFCDQINKELEGPQIAVRLLAHKIQSPQEWEALQALTVLEACMKNCGRRFHNEVGKFRFLNELIKVVSPKYLGDRVSEKVKTKVIELLYSWTMALPEEAKIKDAYHMLKRQGIVQSDPPIPVDRTLIPSPPPRPKNPVFDDEEKSKLLAKLLKSKNPDDLQEANKLIKSMVKEDEARIQKVTKRLHTLEEVNNNVRLLSEMLLHYSQEDSSDGDRELMKELFDQCENKRRTLFKLASETEDNDNSLGDILQASDNLSRVINSYKTIIEGQVINGEVATLTLPDSEG
